Test results from patent publication US20090110739A1, “Targeted cancer chemotherapy using synthetic nanoparticles” (University of North Texas Health Science Center at Forth …, priority 2007, published 2009).

Test system: MCF7
Experiment: MTT cytotoxicity, MCF7 breast cancer cell line
Assay type: cell-based
Details: Homo sapiens; MCF7 cells
Experimental: The cytotoxic effect of each HDL/drug preparation on breast cancer cells to be assessed by measuring the conversion of the tetrazolium dye MTT to formazan in a microtiter plate format.
The cells will be subsequently washed from the flask with complete media, and then centrifuged for 5 minutes at 1000 g to pellet the cells. The cells are then resuspended in complete media. An aliquot is obtained and diluted 1:1 with Trypan Blue. The cells are counted and their viability determined according to the following procedure. The cells are seeded in 96 well microtiter plates (at 3000 cells per well) and allowed to attach for 24 hours. Taxol is diluted to yield a stock solution of 5 μg per 1 ml of PBS and added in 40 μl aliquots to each of the appropriate wells (total volume of 120 μl/well). Controls include media+PTX. […] After a 2 hour incubation at 37° C. and 5.0% CO2, 100 μl of lysing buffer is added to each well. The plates were incubated at 37° C. and 5.0% CO2 overnight, removed from the incubator and then allowed to cool for 15 minutes at room temperature before measuring the absorbance values at 595 nm.

SMILES: CC(=O)O[C@H]1C(=O)[C@@]2(C)[C@H]([C@H](OC(=O)c3ccccc3)[C@]3(O)C[C@H](OC(=O)[C@H](O)[C@@H](NC(=O)c4ccccc4)c4ccccc4)C(C)=C1C3(C)C)[C@]1(OC(C)=O)CO[C@@H]1C[C@@H]2O [Ptx, paclitaxel]
- IC50: 14.2 µM
